Source: PubChem BioAssay AID328 (DTP/NCI, 2004)
The list shows only some results of the screen, not a fair sample: it gathers tests that were run many times, whatever their T/C, doses with no T/C, and many T/C values between a quarter and a half above the control. Further doses and runs are listed elsewhere. T/C is the treated group as % of the vehicle group. Some doses have a count of surviving animals in place of a T/C: the source holds a T/C of zero for them, seemingly a mark for toxic or unscored doses. Some doses without a T/C left all or most animals alive at the check, yet need not have been tolerated: the source hardly ever lists a survival T/C far under the control, and the zero likely stands for such cases as well. Survivors were counted at the toxicity check, usually on the fifth day, unless a day is given; later deaths do not show. Schedule codes are those of the source, taken here to give the interval after Q, in days (D) or hours (H), and the number of doses after X. Some entries hold several experiments; the values are given in rising order. For survival time, this PubChem deposit counts one and a half times the control or more as active, and values a quarter to a half above the control carry no call in these data; other NCI protocols may use other cut-offs.

Tested on: BDF1 mice, P388 leukemia ip, median survival T/C
Assay: NCI In Vivo Anticancer Drug Screen. Data for tumor model P388 Leukemia (intraperitoneal) in B6D2F1 (BDF1) mice
Settings: T/C endpoint: median survival time, higher T/C = longer survival
Procedure, shortened: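 Transplantable tumour in mice; compound vs vehicle dosing; survival scored; ratio of treated to control reported.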

## C=C(C)C12OC3(c4ccccc4)OC1C1C4OC4(CO)C(O)C4(O)C(=O)C(C)=CC4C1(O3)C(C)C2OC(=O)c1ccccc1 (stereo not drawn)
dose: 25.0 micrograms/kg/injection, schedule: Q01DX009 (ip), vehicle: saline + alcohol
  T/C: 127 % of control
dose: 50.0 micrograms/kg/injection, schedule: Q01DX009 (ip), vehicle: saline + alcohol
  T/C: 134 % of control
dose: 100.0 micrograms/kg/injection, schedule: Q01DX009 (ip), vehicle: saline + alcohol
  T/C: 144 % of control

## C1CC[N-]CC1.O=C(CC(=O)C(F)(F)F)C(F)(F)F.O=C(CC(=O)C(F)(F)F)C(F)(F)F.[Cu+]
dose: 100.0 mg/kg/injection, schedule: Q01DX001 (ip), vehicle: saline with Tween-80
  survivor count: 0 of 6
dose: 200.0 mg/kg/injection, schedule: Q01DX001 (ip), vehicle: saline with Tween-80
  survivor count: 0 of 6
dose: 400.0 mg/kg/injection, schedule: Q01DX001 (ip), vehicle: saline with Tween-80
  survivor count: 0 of 6

## O=Nc1c(N=O)c(N=O)c(N=O)c(N=O)c1N=O
dose: 10.0 mg/kg/injection, schedule: Q01DX010 (ip), vehicle: saline
  survivor count: 6 of 6
dose: 20.0 mg/kg/injection, schedule: Q01DX010 (ip), vehicle: saline
  survivor count: 6 of 6
dose: 40.0 mg/kg/injection, schedule: Q01DX010 (ip), vehicle: saline
  survivor count: 6 of 6
dose: 160.0 mg/kg/injection, schedule: Q01DX010 (ip), vehicle: saline
  survivor count: 0 of 6

## c1ccc2c[n+](CCCCCCCCCC[n+]3ccc4ccccc4c3)ccc2c1
dose: 4.0 mg/kg/injection, schedule: Q01DX009 (ip), vehicle: saline
  T/C: 127 % of control
dose: 6.0 mg/kg/injection, schedule: Q01DX009 (ip), vehicle: saline
  T/C: 130 % of control
dose: 20.0 mg/kg/injection, schedule: Q01DX009 (ip), vehicle: saline
  survivor count: 4 of 6 and 6 of 6

## O=[N+]([O-])c1ccc(N/N=C\c2ccc3ccccc3n2)cc1
dose: 400.0 mg/kg/injection, schedule: Q01DX009 (ip), vehicle: saline
  survivor count: 6 of 6

## O=C(O)C(O)C(=O)O
dose: 200.0 mg/kg/injection, schedule: Q04DX003 (ip), vehicle: saline
  survivor count: 4 of 6
dose: 400.0 mg/kg/injection, schedule: Q04DX003 (ip), vehicle: saline
  survivor count: 1 of 6

## CS(=O)(=O)OCCN(CCOS(C)(=O)=O)c1ccc(N=O)cc1
dose: 4.0 mg/kg/injection, schedule: Q01DX010 (ip), vehicle: saline
  survivor count: 6 of 6
dose: 8.0 mg/kg/injection, schedule: Q01DX010 (ip), vehicle: saline
  survivor count: 4 of 6
dose: 16.0 mg/kg/injection, schedule: Q01DX010 (ip), vehicle: saline
  survivor count: 0 of 6
dose: 250.0 micrograms/kg/injection, schedule: Q01DX010 (ip), vehicle: saline
  survivor count: 6 of 6
dose: 500.0 micrograms/kg/injection, schedule: Q01DX010 (ip), vehicle: saline
  survivor count: 4 of 6

## C/C=C/C1=C(Cl)C(=O)[C@@H](Cl)[C@@]1(O)C(=O)OC
dose: 2.5 mg/kg/injection, schedule: Q01DX009 (ip), vehicle: saline with Tween-80
  T/C: 125 and 142 % of control
dose: 5.0 mg/kg/injection, schedule: Q01DX009 (ip), vehicle: saline with Tween-80
  T/C: 147 % of control
dose: 15.0 mg/kg/injection, schedule: Q01DX009 (ip), vehicle: saline with Tween-80
  survivor count: 3 of 10
dose: 20.0 mg/kg/injection, schedule: Q01DX009 (ip), vehicle: saline with Tween-80
  survivor count: 7 of 10
dose: 20.0 mg/kg/injection, schedule: Q04DX003 (ip), vehicle: saline with Tween-80
  survivor count: 1 of 10
dose: 22.5 mg/kg/injection, schedule: Q01DX009 (ip), vehicle: saline with Tween-80
  survivor count: 4 of 10
dose: 26.0 mg/kg/injection, schedule: Q01DX001 (ip), vehicle: saline with Tween-80
  survivor count: 2 of 10
dose: 30.0 mg/kg/injection, schedule: Q01DX009 (ip), vehicle: saline with Tween-80
  survivor count: 2 of 10
dose: 40.0 mg/kg/injection, schedule: Q01DX001 (ip), vehicle: saline with Tween-80
  survivor count: 1 of 10
dose: 45.0 mg/kg/injection, schedule: Q01DX009 (ip), vehicle: saline with Tween-80
  survivor count: 6 of 10
dose: 60.0 mg/kg/injection, schedule: Q01DX001 (ip), vehicle: saline with Tween-80
  survivor count: 3 of 10
dose: 90.0 mg/kg/injection, schedule: Q01DX001 (ip), vehicle: saline with Tween-80
  survivor count: 2 of 10
